A short description of data set [1]: Rubine Dye Uptake Test (substantivity). Particulars: 0.50 % active quaternary; wool swatch, depth of dye uptake; rating of 1 is the best, 10 is poor.
A short description of data set [2]: Comparative conditioning properties: wet comb, dry comb, flyaway of treated hair tresses. Particulars: conditioner base with 2.5% actives; rating of 1 best, 10 poor.

With `CCCCCCCCCCCCCCCC[N+](C)(C)C.[Cl-]` [Cetyl Trimethyl Ammonium Chloride, Cetyl trimethyl ammonium chloride], the “Substantivity RATINGS” value in data set [1] came out at 2. Also, in data set [2], the “DRY COMB” value came out at 3 and the “WET COMB” value is 7.
As for `CCCCCCCCCCCCCCCCCC[N+](C)(C)C.[Cl-]` [Stearalkonium Chloride, Stearyl Trimethyl Ammonium Chloride], the “Substantivity RATINGS” value in data set [1] was found to be 2. In data set [2], the “DRY COMB” value was found to be 4 and the “WET COMB” value turned out to be 5.
The like results for “N′,N″,N′″-Triethyl, N′,N′,N′″,N′″-Tetramethyl, N″-[(Trioxypropyl)-ω-hydroxycetyl], dipropylene triammonium triethosulfate [FINQUAT ® CT-P]” were, in that order, 1, 1 and 2.

Source of the values: patent US6437185B1, “Quaternary ammonium compounds and process for preparing and using same” (Finetex, Inc., priority 1999, dated 2002).
